Experimental data taken from patent US20220195455A1, “DELIVERY OF CRISPR/MCAS9 THROUGH EXTRACELLULAR VESICLES FOR GENOME EDITING” (University of Georgia Research Foundation, Inc., priority 2019, published 2022).
Part of at least one peptide drawing is inferred or uncertain, most often the ends. No end group written: not given here.

Tests used:
full length NMT1 protein = target: T1, full length NMT1 protein (Homo sapiens, UniProt P30419); assay: NMT1 activity assay (CoA release, fluorescence); type: biochemical; details: for Vmax: octapeptide as NMT1 substrate, full length NMT1;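 as to all read-outs here: released CoA from NMT1-catalysed myristoylation of octapeptide substrates detected by fluorescence after reaction with a maleimide coumarin dye (excitation 390 nm, emission 479 nm), triplicate points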
T1 construct: Km and Vmax catalyzed by full length NMT1 protein were calculated
T1 sequence (P30419 1-496): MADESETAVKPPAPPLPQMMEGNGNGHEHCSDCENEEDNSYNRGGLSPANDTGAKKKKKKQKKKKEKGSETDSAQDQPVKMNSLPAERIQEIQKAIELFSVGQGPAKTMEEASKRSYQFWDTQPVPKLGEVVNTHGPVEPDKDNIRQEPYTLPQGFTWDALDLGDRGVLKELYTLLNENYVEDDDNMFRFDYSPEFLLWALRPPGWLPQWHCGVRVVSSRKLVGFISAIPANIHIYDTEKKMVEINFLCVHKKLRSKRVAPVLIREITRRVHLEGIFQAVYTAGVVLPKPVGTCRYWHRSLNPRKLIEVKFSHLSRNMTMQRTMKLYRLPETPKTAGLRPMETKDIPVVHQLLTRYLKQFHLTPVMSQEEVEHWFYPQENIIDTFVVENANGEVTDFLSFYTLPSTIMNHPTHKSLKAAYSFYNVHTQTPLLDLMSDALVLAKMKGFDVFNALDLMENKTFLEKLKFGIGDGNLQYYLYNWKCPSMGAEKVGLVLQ

[1] = tested on: DU145, NIH 3T3, SYF1, 22Rv1 cells; assay: Encapsulation of Src family kinase variants into EVs of transduced cells (Western blot, EVs vs TCL); type: cell-based
Experimental: The transfected cells were grown in exosome-free FBS medium and EVs were isolated from the conditioned medium. […] Ten μg of protein from EVs or TCL were loaded. Src protein levels were quantified by Image J software. […] Data were expressed as mean±SEM, ** p<0.01; *** p<0.001. […] The transduced cells were grown in EVs/exosome-free FBS medium with (Lane 4-6 and 10-12) or without (Lane 1-3 and 7-9) 50 μM myristic acid-azide (an analog of myristic acid). The myristoylated proteins from either EVs or TCL were detected using Click chemistry. Ten μg of protein from EVs or TCL were loaded.
EVs were isolated from conditioned medium by sequential ultracentrifugation. […] Ten μg of protein from EVs or TCL were loaded. […] Coomassie staining was used to show equivalent loading of samples. The Src expression level was quantified by Image J software. Data are expressed as mean±SEM, * p<0.05; ** p<0.01; *** p<0.001.
The transduced cells were grown in EVs/exosome-free medium for 24 h and EVs were isolated from the conditioned medium. […] Data are expressed as mean±SEM. * p<0.05; **** p<0.0001; NS: Not significant.
The transduced cells were grown in exosome-free FBS medium. […] Expression levels of Src in extracellular vesicles (EVs) and total cell lysates (TCL) from the transduced cells were evaluated by Western blotting. […] The Src protein was quantified by Image J software. […] Data are expressed as mean±SEM. ** p<0.01. […]

## GRESRHYR [DDX46, GRESRHYR (SEQ ID NO: 382)]
Full length NMT1 protein
  Vmax: 2.0 µM/min

## ASNKSKPK [SRC(G2A), ASNKSKPK (SEQ ID NO: 383)]
Full length NMT1 protein; octapeptide
  substrate of NMT1: not a substrate of NMT1 enzyme
Full length NMT1 protein
  Vmax: 1.0 µM/min
[1]; DU145, NIH 3T3, SYF1, 22Rv1, in comparison with Src(WT)
  levels of Src kinase in EVs: significantly reduced
[1]; DU145, compared to Src(WT)
  levels of Src kinase in EVs: significantly inhibited

## GLLDRLSV [ARL6, GLLDRLSV (SEQ ID NO: 378)]
Full length NMT1 protein
  Vmax: 1.8 µM/min
